Source: PubChem BioAssay AID256 (DTP/NCI, 2004)
The list does not hold the whole screen: it gathers tests that were run many times, whatever their T/C, doses with no T/C, and many T/C values between a quarter and a half above the control. Other doses and runs of a compound stand elsewhere. T/C: endpoint of the treated group in % of that of the vehicle group. Some doses have a count of surviving animals in place of a T/C: the source holds a T/C of zero for them, seemingly a mark for toxic or unscored doses. Some survivor counts are full or nearly so, which does not show that the dose was tolerated: the source hardly ever lists a survival T/C far under the control, and the zero likely stands for such cases as well. Survivors were counted at the toxicity check, usually on the fifth day, unless a day is given; later deaths do not show. Schedule codes are those of the source, taken here to give the interval after Q, in days (D) or hours (H), and the number of doses after X. Some doses were run more than once; the results are listed from low to high. Where survival is the endpoint, this PubChem deposit counts one and a half times the control or more as active, and values a quarter to a half above the control carry no call in these data; other NCI protocols may use other cut-offs. Some T/C values carry the count of animals alive at the toxicity check (mostly the fifth day); where none is given, no animal had died by that day.

Tested on: CD2F1 mice, L1210 leukemia ip, survival T/C
Assay: NCI In Vivo Anticancer Drug Screen. Data for tumor model L1210 Leukemia (intraperitoneal) in CD2F1 (CDF1) mice
Conditions: higher T/C = longer survival
Method in brief: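 Read-out first: treated-group measurement over vehicle-control measurement, expressed as a ratio. Animals bore a transplanted tumor line and were dosed with compound or vehicle.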

[1] = T/C endpoint: mean survival time, dose: 150.0 mg/kg/injection, schedule: Q01DX001 (ip), vehicle: saline
[2] = T/C endpoint: mean survival time, dose: 300.0 mg/kg/injection, schedule: Q01DX001 (ip), vehicle: saline
[3] = T/C endpoint: mean survival time, dose: 200.0 mg/kg/injection, schedule: Q01DX009 (ip), vehicle: saline with Tween-80
[4] = T/C endpoint: mean survival time, dose: 400.0 mg/kg/injection, schedule: Q01DX009 (ip), vehicle: saline with Tween-80
[5] = T/C endpoint: mean survival time, dose: 100.0 mg/kg/injection, schedule: Q04DX003 (ip), vehicle: saline with Tween-80
[6] = T/C endpoint: mean survival time, dose: 200.0 mg/kg/injection, schedule: Q04DX003 (ip), vehicle: saline with Tween-80
[7] = T/C endpoint: mean survival time, dose: 100.0 mg/kg/injection, schedule: Q01DX009 (ip), vehicle: saline with Tween-80
[8] = T/C endpoint: mean survival time, dose: 50.0 mg/kg/injection, schedule: Q01DX009 (ip), vehicle: saline with Tween-80
[9] = T/C endpoint: mean survival time, dose: 400.0 mg/kg/injection, schedule: Q01DX001 (ip), vehicle: saline
[10] = T/C endpoint: mean survival time, dose: 25.0 mg/kg/injection, schedule: Q01DX009 (ip), vehicle: water

SMILES: O=[N+]([O-])O.[Zn+2].c1ccncc1
- survivor count [1]: 0 of 6
- survivor count [2]: 0 of 6

SMILES: Clc1ccc(C[n+]2ccccc2)cc1Cl
- survivor count (T/C endpoint: mean survival time, dose: 40.0 mg/kg/injection, schedule: Q04DX003 (ip), vehicle: saline): 2 of 6

SMILES: COC(=O)C1C(=O)C(C(=O)OC)C(C)N(C)C1C (stereo not given)
- survivor count (T/C endpoint: mean survival time, dose: 75.0 mg/kg/injection, schedule: Q01DX001 (ip), vehicle: other): 1 of 6
- survivor count (T/C endpoint: mean survival time, dose: 150.0 mg/kg/injection, schedule: Q01DX001 (ip), vehicle: other): 0 of 6
- survivor count (T/C endpoint: mean survival time, dose: 300.0 mg/kg/injection, schedule: Q01DX001 (ip), vehicle: other): 0 of 6

SMILES: CCC1OC(OC)C=CC1=O (stereo not given)
- survivor count (T/C endpoint: median survival time, dose: 200.0 mg/kg/injection, schedule: Q01DX009 (ip), vehicle: saline): 0 of 6

SMILES: COC(=O)C(Cc1ccccc1)NC(=O)C(CSCc1ccccc1)NC(=O)OCc1ccccc1 (stereo not given)
- survivor count [3]: 6 of 6
- survivor count [4]: 6 of 6

SMILES: CN(C)c1ccc(/C=C2\C=Nc3ccccc32)cc1
- survivor count (T/C endpoint: mean survival time, dose: 50.0 mg/kg/injection, schedule: Q04DX003 (ip), vehicle: saline with Tween-80): 3 of 3

SMILES: COC(=O)c1ccc(-n2cc(C(=O)OC)c([N+]#N)c2[O-])cc1
- survivor count [5]: 6 of 6

SMILES: COc1ccccc1OC(=O)Nc1ccc(C)c([N+](=O)[O-])c1
- survivor count [6]: 6 of 6

SMILES: COc1cc(C2=N/C(=C\c3cc(Br)ccc3O)C(=O)O2)cc(OC)c1OC
- T/C (T/C endpoint: mean survival time, dose: 200.0 mg/kg/injection, schedule: Q04DX002 (ip), vehicle: saline with Tween-80): 126 % of control [2 of 3 alive]

SMILES: O=C(CCl)Nc1cc(C(F)(F)F)ccc1Cl
- survivor count [7]: 2 of 6
- survivor count [3]: 1 of 6
- survivor count [4]: 2 of 6

SMILES: CCC(=O)c1ccc2c(c1)N(C(C)CN(C)C)c1ccccc1S2 (stereo not given)
- survivor count (T/C endpoint: mean survival time, dose: 200.0 mg/kg/injection, schedule: Q04DX003 (ip), vehicle: saline): 2 of 6

SMILES: c1ccc2c(c1)[nH]c1c2cc[n+]2cc3c(cc12)CCCC3
- survivor count (T/C endpoint: mean survival time, dose: 80.0 mg/kg/injection, schedule: Q01DX001 (ip), vehicle: saline): 0 of 6

SMILES: CC(=O)OCC1OC(S[As](C)SC2OC(COC(C)=O)C(OC(C)=O)C(OC(C)=O)C2OC(C)=O)C(OC(C)=O)C(OC(C)=O)C1OC(C)=O (stereo not given)
- survivor count [8]: 0 of 3
- survivor count [7]: 0 of 3
- survivor count [3]: 0 of 3

SMILES: [CH3][Sn]([CH3])([CH3])[CH2]CCBr
- survivor count (T/C endpoint: mean survival time, dose: 1.56 mg/kg/injection, schedule: Q01DX009 (ip), vehicle: saline): 0 of 3
- survivor count (T/C endpoint: mean survival time, dose: 6.25 mg/kg/injection, schedule: Q01DX009 (ip), vehicle: saline with Tween-80): 2 of 3
- survivor count (T/C endpoint: mean survival time, dose: 12.5 mg/kg/injection, schedule: Q01DX009 (ip), vehicle: saline with Tween-80): 1 of 3
- survivor count (T/C endpoint: mean survival time, dose: 25.0 mg/kg/injection, schedule: Q01DX009 (ip), vehicle: saline with Tween-80): 0 of 3
- survivor count (T/C endpoint: mean survival time, dose: 100.0 mg/kg/injection, schedule: Q01DX009 (ip), vehicle: saline): 3 of 3
- survivor count (T/C endpoint: mean survival time, dose: 200.0 mg/kg/injection, schedule: Q01DX009 (ip), vehicle: saline): 0 of 3

SMILES: NCC1CC2C=CC1C2 (stereo not given)
- survivor count [9]: 0 of 6

SMILES: CS(=O)(=O)N1CCCCC1
- survivor count [1]: 0 of 6
- survivor count [2]: 0 of 6

SMILES: CCCCCCCCCCC(N)P(=O)(O)O (stereo not given)
- survivor count [5]: 4 of 6

SMILES: O=P1(N(CCCl)CCCl)NCCCO1.[Cl][Sb]([Cl])[Cl] (stereo not given)
- survivor count (T/C endpoint: mean survival time, dose: 250.0 mg/kg/injection, schedule: Q01DX001 (ip), vehicle: olive oil, sesame oil, peanut oil): 0 of 6
- survivor count (T/C endpoint: mean survival time, dose: 500.0 mg/kg/injection, schedule: Q01DX001 (ip), vehicle: olive oil, sesame oil, peanut oil): 0 of 6

SMILES: Nc1ccc(OC(=O)c2ccccc2)cc1
- survivor count [8]: 6 of 6

SMILES: O=c1[nH]cnc2c1nc(N1CCCC1)n2C1OC(CO)C(O)C1O (stereo not given)
- survivor count (T/C endpoint: mean survival time, dose: 200.0 mg/kg/injection, schedule: Q01DX005 (ip), vehicle: distilled water + Tween-80): 2 of 6

SMILES: CCC(C)(O)C(C)N(C)C1CCCCC1 (stereo not given)
- survivor count (T/C endpoint: mean survival time, dose: 400.0 mg/kg/injection, schedule: Q04DX003 (ip), vehicle: saline): 0 of 4 and 1 of 4

SMILES: N=c1c2cnn(C3OC(CO)C(O)C3O)c2ncn1N (stereo not given)
- T/C [10]: 126 % of control
- survivor count [10]: 6 of 6
- survivor count (T/C endpoint: mean survival time, dose: 50.0 mg/kg/injection, schedule: Q01DX009 (ip), vehicle: water): 5 of 6
- survivor count (T/C endpoint: mean survival time, dose: 100.0 mg/kg/injection, schedule: Q01DX009 (ip), vehicle: water): 3 of 5
- survivor count (T/C endpoint: mean survival time, dose: 200.0 mg/kg/injection, schedule: Q01DX009 (ip), vehicle: water): 0 of 5
- survivor count (T/C endpoint: mean survival time, dose: 400.0 mg/kg/injection, schedule: Q01DX009 (ip), vehicle: water): 0 of 5

SMILES: CS(=O)(=O)c1nnc(S(C)(=O)=O)s1
- survivor count (T/C endpoint: mean survival time, dose: 25.0 mg/kg/injection, schedule: Q04DX003 (ip), vehicle: saline sonified): 3 of 6
- survivor count (T/C endpoint: mean survival time, dose: 50.0 mg/kg/injection, schedule: Q04DX003 (ip), vehicle: saline sonified): 0 of 6
- survivor count [5]: 3 of 6
- survivor count [6]: 0 of 6
- survivor count (T/C endpoint: mean survival time, dose: 400.0 mg/kg/injection, schedule: Q04DX003 (ip), vehicle: saline with Tween-80): 0 of 6

SMILES: N#Cc1ccc(NN=O)nc1
- T/C (T/C endpoint: median survival time, dose: 9.0 mg/kg/injection, schedule: Q01DX005 (ip), vehicle: water): 128 and 129 % of control
- T/C (T/C endpoint: median survival time, dose: 25.0 mg/kg/injection, schedule: Q01DX005 (ip), vehicle: water): 142 % of control
- T/C (T/C endpoint: median survival time, dose: 41.6 mg/kg/injection, schedule: Q01DX005 (ip), vehicle: water): 137 % of control
- survivor count (T/C endpoint: median survival time, dose: 69.44 mg/kg/injection, schedule: Q01DX005 (ip), vehicle: water): 5 of 6

SMILES: O=C(CCCCC(=O)Nc1ccc(C2=NCCN2)cc1)Nc1ccc(C2=NCCN2)cc1
- T/C (T/C endpoint: mean survival time, dose: 37.5 mg/kg/injection, schedule: Q01DX009 (ip), vehicle: saline): 147 % of control

SMILES: C=CN(C)OC
- survivor count (T/C endpoint: mean survival time, dose: 200.0 mg/kg/injection, schedule: Q01DX001 (ip), vehicle: saline): 1 of 6
- survivor count [9]: 0 of 6

SMILES: CN(C=O)c1cc2c3c(c1)CCCN3CCC2
- survivor count [7]: 1 of 6
- survivor count [3]: 0 of 6
- survivor count (T/C endpoint: mean survival time, dose: 400.0 mg/kg/injection, schedule: Q01DX001 (ip), vehicle: saline with Tween-80): 0 of 6

SMILES: FC(F)(F)/C([S-])=C(/[S-])C(F)(F)F.FC(F)(F)/C([S-])=C(/[S-])C(F)(F)F.FC(F)(F)/C([S-])=C(/[S-])C(F)(F)F.FC(F)(F)/C([S-])=C(/[S-])C(F)(F)F.[Co+3].[Co+3]
- survivor count (T/C endpoint: mean survival time, dose: 100.0 mg/kg/injection, schedule: Q04DX003 (ip), vehicle: other): 6 of 6
- survivor count (T/C endpoint: mean survival time, dose: 200.0 mg/kg/injection, schedule: Q04DX003 (ip), vehicle: other): 1 of 6
- survivor count (T/C endpoint: mean survival time, dose: 400.0 mg/kg/injection, schedule: Q04DX003 (ip), vehicle: other): 0 of 6
